Experimental data as given in PubChem BioAssay AID587 (National Center for Advancing Translational Sciences (NCATS), 2007).
Out of some 59,000 compounds screened, about 35 (0.06%) were called active. Inconclusive means that the source gave no clear call. Such entries were picked first, then a sample of the others. Rule as the data show it: active = max dye-equivalent concentration above about 10 nM; inconclusive = between about 1.1 nM and that limit; inactive = weaker than that.

Assay: qHTS Assay for Spectroscopic Profiling in Texas Red Spectral Region
Conditions: Compound fluorescence, Texas Red channel, 547/618 nm; active compounds read high
Method in brief: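 qHTS profiling of intrinsic compound fluorescence; 100 mM Tris pH 8.0; 15 min RT; ex 547 / em 618 nm; response expressed as Texas Red dye-equivalent concentration from six-point plate standard.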

SMILES | max dye-equivalent concentration
COc1cc2c(cc1OC)-c1cc(NC3CC3)nc(=O)n1CC2 | inconclusive: 1.3 nM
C=CCN(CC(=O)NCc1ccc(OC)cc1)C(=O)c1csnn1 | inconclusive: 2.9 nM
O=C(CCN1C(=O)c2ccccc2C1=O)Nc1ccc(S(=O)(=O)N2CCOCC2)cc1 | inconclusive: 1.2 nM
O=C(NCc1ccc(F)cc1)C1CCCN(C(=O)Nc2ccccc2)C1 (stereo not given) | inconclusive: 1.7 nM
CCn1c(=S)sc2c(=O)n(-c3ccccc3)c(SCC(=O)NCc3ccco3)nc21 | inconclusive: 1.7 nM
CC1CCN(CCCn2c(=S)[nH]c3ccc(N4CCOCC4)cc3c2=O)CC1 | inconclusive: 1.1 nM
O=C(NC(Cc1ccccc1)C(=O)O)c1ccc(S(=O)(=O)N2CCOCC2)cc1 (stereo not given) | inconclusive: 1.3 nM
CC1(C)c2ccccc2N2CC(=O)N(CC(N)=O)C21C (stereo not given) | inconclusive: 8.1 nM
CCn1c(SC)nnc1-c1sc2cc(Cl)ccc2c1Cl | inconclusive: 1.5 nM
CCCC(=O)Nc1cccn(Cc2ccccc2Br)c1=O | inconclusive: 1.3 nM
Clc1cccc2sc(N3CCN(c4ccccc4)CC3)nc12 | inconclusive: 1.7 nM
Cc1ccc(Nc2nc(N)nc(CSc3nnc(-c4ccncc4)o3)n2)cc1 | inconclusive: 1.3 nM
NC(=O)c1ccsc1NC(=O)CSc1nc2ccccc2c(=O)n1CCCO | inconclusive: 1.9 nM
CCOC(=O)N1CCC(N(CCOC)C(=O)Nc2ccc(Cl)c(Cl)c2)CC1 | inconclusive: 1.3 nM
CCCC(c1nnnn1CS(=O)(=O)c1ccc(C)cc1)N1CCN(c2ccc(F)cc2)CC1 (stereo not given) | inconclusive: 1.5 nM
CC1CCc2cccc3c2N1c1cc(C#N)c(C#N)cc1O3 (stereo not given) | inconclusive: 1.2 nM
CCCCOc1ccccc1C(=O)NCCCC(=O)O | inconclusive: 1.4 nM
O=C(c1ccc(Nc2cccc(C(F)(F)F)c2)nc1)N1CCCC1 | inconclusive: 1.3 nM
COc1ccc(O)c(C(=O)c2cnc3onc(C(C)C)c3c2)c1 | inconclusive: 1.4 nM
COc1ccc(-c2nnn(CCc3nn[nH]n3)n2)cc1OC | inactive
Cc1cc(NC(=O)c2ccc(Br)c(S(=O)(=O)N3CCCC3)c2)no1 | inconclusive: 1.2 nM
CC(=O)c1cc2ccccc2oc1=O | inconclusive: 1.5 nM
COCCNC(=O)CN(C(=O)CCC(=O)Nc1nccs1)c1ccccc1OC | inconclusive: 1.6 nM
COCCCNC(=O)CCc1nc2cccnc2n1Cc1ccccc1 | inconclusive: 1.8 nM
N#CCSc1n[nH]c2nc3c(c(=O)n12)C1(CCCC1)Cc1ccccc1-3 | inconclusive: 1.5 nM
CC1CN(S(=O)(=O)c2ccc(NC(=O)CCCN3C(=O)c4ccccc4C3=O)cc2)CC(C)O1 (stereo not given) | inconclusive: 1.6 nM
NC[C@H](O)c1ccc(O)c(O)c1 | inconclusive: 1.3 nM
O=C(CSc1nnc(Cc2ccccc2)o1)NC1CCCCC1 | inconclusive: 2 nM

Exported as labelled records: 2 of the compounds above.
Cc1ccc(Nc2nc(N)nc(CSc3nnc(-c4ccncc4)o3)n2)cc1
  max dye-equivalent concentration: inconclusive: 1.3 nM
NC(=O)c1ccsc1NC(=O)CSc1nc2ccccc2c(=O)n1CCCO
  max dye-equivalent concentration: inconclusive: 1.9 nM

(listing goes on)

SMILES | max dye-equivalent concentration
COc1ccc(-n2nc3c(c2NC(=O)c2cc4ccccc4oc2=O)CS(=O)(=O)C3)cc1 | inconclusive: 1.5 nM
CSc1nsc(SCC(=O)Nc2cccc(C(C)=O)c2)n1 | inconclusive: 1.3 nM
O=C(NCC1CCCO1)c1cnn2c1NC(c1ccccc1)CC2C(F)(F)F (stereo not given) | inconclusive: 1.4 nM
C/C(N)=C(/C#N)C(=O)CSc1nnc(-c2ccc(OC(F)F)cc2)o1 | inconclusive: 1.8 nM
CNC(=O)Nc1cccc(C(F)(F)F)c1 | inconclusive: 1.2 nM
Cc1occc1-c1nnc(SCC(=O)N2CC(=O)Nc3ccccc32)n1CC(C)C | inconclusive: 1.7 nM
COCCn1c(=O)c(-c2cccs2)nc2cncnc21 | inactive
O=P(O)(O)c1ccccc1OCCCCCOc1ccccc1P(=O)(O)O | inconclusive: 1.1 nM
CCOn1c(=O)c(-c2ccc(OC)cc2)[n+]([O-])c2ccccc21 | inactive
CCN1CCc2c(sc3c2c(NCc2ccco2)nc2nnnn23)C1 | inactive
Cc1cc(C)cc(NC(=O)C2CCN(c3nccs3)CC2)c1 | inconclusive: 1.6 nM
COc1ccc(OC)c(C2C(C(=O)c3cc4ccccc4o3)=C(O)C(=O)N2c2cc(C)on2)c1 (stereo not given) | inconclusive: 1.4 nM
CCCn1c(=NC(=O)c2ccncc2)c(C#N)cc2c(=O)n3cccc(C)c3nc21 | inactive
Cc1cc(C)c2[nH]c(=O)c(CN(Cc3nnnn3C3CCCC3)C3CCCCC3)cc2c1 | inconclusive: 1.6 nM
c1cc2nnnn2nc1N1CCCCC1 | inconclusive: 1.1 nM
Cc1cc(C)cc(N2CC(C(=O)O)CC2=O)c1 (stereo not given) | inconclusive: 1.1 nM
O=C(CCS(=O)(=O)c1ccc(Br)s1)NCc1cccs1 | inconclusive: 1.8 nM
CCCCCCOc1ccc(OCC(O)CN2C(=O)NC(C)(C)C2=O)cc1 (stereo not given) | inconclusive: 1.4 nM
CCOc1cc(C)c(Cl)cc1S(=O)(=O)NCc1ccco1 | inconclusive: 1.4 nM
Oc1c(CN2CCN(c3ccccc3)CC2)cc(Br)c2cccnc12 | inconclusive: 2 nM
COc1ccc(N(C(=O)Cn2nnc3ccccc32)C(C(=O)NCc2ccco2)c2ccc(C)o2)cc1 (stereo not given) | inconclusive: 1.4 nM
COc1cc(C2C(C#N)=C(N)Oc3c2oc(CO)cc3=O)ccc1OC(C)C (stereo not given) | inconclusive: 1.3 nM
Cc1ccc(S(=O)(=O)c2cc3c(=O)n4ccccc4nc3n(Cc3ccco3)c2=N)cc1C | inactive
C=C[C@H]1CN2CC[C@@H]1C[C@H]2[C@@H](O)c1ccnc2ccc(OC)cc12 | inactive
Cc1cc(C(F)F)n2ncc(C(=O)NCc3ccccc3)c2n1 | inconclusive: 1.6 nM
CCCN(CCC)C(C(=O)Nc1cccc(OC)c1)c1ccccc1 (stereo not given) | inconclusive: 3.2 nM
CC(C)OC(=O)CSc1nnc(-c2cccnc2)n1Cc1ccccc1 | inconclusive: 1.7 nM
